For 1 substance, crude yield results are on record in patent US20010029035A1 (priority 2000, published 2001).

This data set can be described thus: solid-phase peptide synthesis. Conditions: whole synthesis.

For “H-D-Phe-Cys(Acm)-Phe-D-Trp-Lys-Thr-Cys(Acm)-Thr-OH”, the crude yield is reported as over 95%.
